# From the supplement of paper PMC10849652
# The chains behind the UniProt entries cited, without tags or fusion partners. Where a name states a change or a piece, a line headed by the entry shows the natural chain unless it says otherwise.
# UniProt O43143: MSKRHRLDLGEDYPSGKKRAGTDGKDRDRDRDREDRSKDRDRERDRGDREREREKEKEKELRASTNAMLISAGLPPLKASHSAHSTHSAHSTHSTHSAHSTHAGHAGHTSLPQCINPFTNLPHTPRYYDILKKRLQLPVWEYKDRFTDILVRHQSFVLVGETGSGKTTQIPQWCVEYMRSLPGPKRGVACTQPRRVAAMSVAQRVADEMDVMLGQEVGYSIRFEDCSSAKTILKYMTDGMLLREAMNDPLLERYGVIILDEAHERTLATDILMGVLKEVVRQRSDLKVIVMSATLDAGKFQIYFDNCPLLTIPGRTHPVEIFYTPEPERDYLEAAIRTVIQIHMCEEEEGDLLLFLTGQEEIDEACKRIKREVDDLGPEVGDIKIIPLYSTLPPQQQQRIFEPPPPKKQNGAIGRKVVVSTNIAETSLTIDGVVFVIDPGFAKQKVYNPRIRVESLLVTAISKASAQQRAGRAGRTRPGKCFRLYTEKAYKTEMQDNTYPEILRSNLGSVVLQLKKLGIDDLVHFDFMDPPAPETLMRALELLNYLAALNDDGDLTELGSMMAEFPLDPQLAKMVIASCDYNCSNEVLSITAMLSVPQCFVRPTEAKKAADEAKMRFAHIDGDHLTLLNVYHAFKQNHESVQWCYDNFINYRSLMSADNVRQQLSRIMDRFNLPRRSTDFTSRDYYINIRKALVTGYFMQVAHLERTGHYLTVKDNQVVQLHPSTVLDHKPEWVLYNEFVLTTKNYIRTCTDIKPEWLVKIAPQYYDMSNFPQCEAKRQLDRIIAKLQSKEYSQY
# UniProt O60610, whole entry, looked up: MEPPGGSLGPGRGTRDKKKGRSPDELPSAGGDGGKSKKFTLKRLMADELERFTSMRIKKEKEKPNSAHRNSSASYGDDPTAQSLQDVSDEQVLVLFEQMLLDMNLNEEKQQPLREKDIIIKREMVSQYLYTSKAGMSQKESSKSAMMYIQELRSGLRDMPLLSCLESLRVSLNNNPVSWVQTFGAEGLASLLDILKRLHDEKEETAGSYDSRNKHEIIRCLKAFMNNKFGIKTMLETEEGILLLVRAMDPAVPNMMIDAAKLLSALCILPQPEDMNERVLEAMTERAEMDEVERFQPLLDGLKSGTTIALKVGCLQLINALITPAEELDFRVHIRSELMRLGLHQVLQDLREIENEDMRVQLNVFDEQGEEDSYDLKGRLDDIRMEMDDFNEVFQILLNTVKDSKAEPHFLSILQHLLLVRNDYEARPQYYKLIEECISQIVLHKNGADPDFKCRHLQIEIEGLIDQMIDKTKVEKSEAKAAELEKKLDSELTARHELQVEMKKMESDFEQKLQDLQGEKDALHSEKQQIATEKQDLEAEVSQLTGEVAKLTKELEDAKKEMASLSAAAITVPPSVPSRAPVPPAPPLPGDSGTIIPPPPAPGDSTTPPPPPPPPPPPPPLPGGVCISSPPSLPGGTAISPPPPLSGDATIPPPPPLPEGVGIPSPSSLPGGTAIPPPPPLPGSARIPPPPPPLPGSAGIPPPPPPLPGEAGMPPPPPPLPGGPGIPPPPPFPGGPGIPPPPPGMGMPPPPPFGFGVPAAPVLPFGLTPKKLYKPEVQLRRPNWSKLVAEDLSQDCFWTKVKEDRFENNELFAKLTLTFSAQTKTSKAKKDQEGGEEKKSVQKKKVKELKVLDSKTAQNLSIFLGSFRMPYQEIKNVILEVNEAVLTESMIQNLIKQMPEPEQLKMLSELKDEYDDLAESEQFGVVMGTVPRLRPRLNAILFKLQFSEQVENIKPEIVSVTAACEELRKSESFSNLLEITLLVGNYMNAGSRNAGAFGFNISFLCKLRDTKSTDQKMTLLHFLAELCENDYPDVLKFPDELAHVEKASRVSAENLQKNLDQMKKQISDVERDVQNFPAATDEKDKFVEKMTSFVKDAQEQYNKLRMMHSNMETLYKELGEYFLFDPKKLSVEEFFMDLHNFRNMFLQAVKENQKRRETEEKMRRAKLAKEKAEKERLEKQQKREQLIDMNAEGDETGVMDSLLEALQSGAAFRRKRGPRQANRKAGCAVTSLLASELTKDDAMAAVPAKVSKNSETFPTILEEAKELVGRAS
# UniProt Q6UWP2: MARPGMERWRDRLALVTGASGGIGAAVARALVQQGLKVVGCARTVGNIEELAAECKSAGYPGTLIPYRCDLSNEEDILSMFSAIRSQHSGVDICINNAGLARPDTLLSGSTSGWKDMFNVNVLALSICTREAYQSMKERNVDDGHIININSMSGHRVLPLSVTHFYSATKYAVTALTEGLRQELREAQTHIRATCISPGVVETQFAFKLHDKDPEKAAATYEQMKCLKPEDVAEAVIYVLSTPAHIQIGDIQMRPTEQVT
# UniProt Q96LJ7: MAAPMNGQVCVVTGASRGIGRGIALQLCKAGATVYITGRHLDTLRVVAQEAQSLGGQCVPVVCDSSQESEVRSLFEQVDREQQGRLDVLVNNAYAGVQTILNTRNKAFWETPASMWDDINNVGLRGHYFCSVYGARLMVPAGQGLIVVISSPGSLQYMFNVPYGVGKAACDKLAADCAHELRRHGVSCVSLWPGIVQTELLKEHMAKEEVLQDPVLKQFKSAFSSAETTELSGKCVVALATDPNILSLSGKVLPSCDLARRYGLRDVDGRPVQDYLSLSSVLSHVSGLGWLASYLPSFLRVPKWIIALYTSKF
# UniProt O60884: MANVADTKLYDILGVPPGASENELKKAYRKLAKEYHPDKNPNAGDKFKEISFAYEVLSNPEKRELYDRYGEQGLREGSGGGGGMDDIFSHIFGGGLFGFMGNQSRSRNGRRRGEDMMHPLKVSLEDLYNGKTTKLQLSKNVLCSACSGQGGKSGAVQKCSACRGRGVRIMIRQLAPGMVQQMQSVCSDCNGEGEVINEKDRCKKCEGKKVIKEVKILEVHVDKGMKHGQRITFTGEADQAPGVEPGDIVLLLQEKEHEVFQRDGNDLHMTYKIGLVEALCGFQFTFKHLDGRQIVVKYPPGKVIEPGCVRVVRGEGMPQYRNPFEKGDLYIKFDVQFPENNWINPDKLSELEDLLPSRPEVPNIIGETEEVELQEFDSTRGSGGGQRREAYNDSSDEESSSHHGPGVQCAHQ
# UniProt O94830: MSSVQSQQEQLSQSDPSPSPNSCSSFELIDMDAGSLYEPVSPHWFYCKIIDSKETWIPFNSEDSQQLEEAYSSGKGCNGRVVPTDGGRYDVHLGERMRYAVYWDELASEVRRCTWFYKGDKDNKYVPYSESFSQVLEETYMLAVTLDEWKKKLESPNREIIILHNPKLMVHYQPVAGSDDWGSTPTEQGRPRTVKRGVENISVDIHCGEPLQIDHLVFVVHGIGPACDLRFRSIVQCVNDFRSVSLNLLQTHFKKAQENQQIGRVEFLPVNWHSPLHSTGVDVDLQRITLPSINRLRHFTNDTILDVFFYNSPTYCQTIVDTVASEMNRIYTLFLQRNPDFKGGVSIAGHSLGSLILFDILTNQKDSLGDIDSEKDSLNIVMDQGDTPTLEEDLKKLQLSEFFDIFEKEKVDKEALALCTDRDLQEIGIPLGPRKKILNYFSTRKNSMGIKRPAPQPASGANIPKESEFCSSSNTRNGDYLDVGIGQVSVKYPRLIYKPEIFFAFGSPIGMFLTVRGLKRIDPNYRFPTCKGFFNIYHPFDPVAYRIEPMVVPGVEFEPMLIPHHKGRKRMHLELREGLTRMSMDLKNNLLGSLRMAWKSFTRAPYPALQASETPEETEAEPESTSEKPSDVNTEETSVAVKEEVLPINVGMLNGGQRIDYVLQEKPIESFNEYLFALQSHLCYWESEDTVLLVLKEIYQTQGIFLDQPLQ
# UniProt Q9BUN8: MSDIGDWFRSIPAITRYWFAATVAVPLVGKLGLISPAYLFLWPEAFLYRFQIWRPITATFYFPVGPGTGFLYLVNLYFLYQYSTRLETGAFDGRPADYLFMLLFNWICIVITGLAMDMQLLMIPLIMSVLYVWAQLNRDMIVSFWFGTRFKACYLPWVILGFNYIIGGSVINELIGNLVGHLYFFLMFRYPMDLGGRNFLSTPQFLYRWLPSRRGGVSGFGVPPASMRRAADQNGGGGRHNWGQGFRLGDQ
# UniProt Q9NY93: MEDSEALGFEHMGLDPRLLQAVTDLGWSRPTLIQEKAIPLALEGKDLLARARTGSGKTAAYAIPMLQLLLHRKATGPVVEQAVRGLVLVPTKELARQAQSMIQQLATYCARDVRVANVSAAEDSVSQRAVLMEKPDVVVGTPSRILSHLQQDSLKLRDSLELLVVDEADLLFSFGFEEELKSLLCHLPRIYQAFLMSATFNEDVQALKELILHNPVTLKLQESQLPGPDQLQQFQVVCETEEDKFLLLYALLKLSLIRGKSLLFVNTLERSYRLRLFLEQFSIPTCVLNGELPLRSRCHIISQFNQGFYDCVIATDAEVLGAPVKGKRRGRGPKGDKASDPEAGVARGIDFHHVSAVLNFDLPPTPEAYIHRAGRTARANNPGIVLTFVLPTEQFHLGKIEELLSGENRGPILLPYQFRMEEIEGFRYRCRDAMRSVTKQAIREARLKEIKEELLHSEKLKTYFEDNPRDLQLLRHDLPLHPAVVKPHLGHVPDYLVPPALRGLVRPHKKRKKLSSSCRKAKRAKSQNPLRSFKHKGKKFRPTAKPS
# UniProt P00374: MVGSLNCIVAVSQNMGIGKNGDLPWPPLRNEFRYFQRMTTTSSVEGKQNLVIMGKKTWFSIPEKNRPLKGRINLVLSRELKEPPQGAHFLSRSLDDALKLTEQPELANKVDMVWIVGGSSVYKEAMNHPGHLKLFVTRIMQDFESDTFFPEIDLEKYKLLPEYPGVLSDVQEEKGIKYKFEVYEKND
# UniProt O60832: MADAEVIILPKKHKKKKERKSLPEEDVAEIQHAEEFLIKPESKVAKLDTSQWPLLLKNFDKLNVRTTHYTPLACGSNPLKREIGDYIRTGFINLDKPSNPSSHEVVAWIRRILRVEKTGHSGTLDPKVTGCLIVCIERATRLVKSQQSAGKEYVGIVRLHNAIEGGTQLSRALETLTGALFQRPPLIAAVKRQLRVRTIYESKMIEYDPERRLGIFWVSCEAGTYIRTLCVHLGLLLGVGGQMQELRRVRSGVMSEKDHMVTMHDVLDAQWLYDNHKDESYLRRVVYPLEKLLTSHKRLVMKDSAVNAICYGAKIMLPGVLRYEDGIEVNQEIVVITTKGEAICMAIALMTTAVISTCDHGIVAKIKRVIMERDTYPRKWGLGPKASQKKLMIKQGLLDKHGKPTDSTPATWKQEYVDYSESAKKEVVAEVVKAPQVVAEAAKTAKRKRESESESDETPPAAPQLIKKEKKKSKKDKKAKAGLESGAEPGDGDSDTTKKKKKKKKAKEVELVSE
# UniProt O75911: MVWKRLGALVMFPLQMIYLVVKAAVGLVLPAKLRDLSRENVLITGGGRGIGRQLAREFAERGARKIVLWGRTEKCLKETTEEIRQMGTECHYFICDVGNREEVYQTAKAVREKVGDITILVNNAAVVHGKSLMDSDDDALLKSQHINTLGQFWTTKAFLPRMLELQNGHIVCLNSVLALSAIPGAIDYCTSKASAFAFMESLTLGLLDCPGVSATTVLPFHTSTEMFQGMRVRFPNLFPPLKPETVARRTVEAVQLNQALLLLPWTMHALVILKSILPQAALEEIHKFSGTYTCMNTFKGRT
# UniProt P09622, whole entry, looked up: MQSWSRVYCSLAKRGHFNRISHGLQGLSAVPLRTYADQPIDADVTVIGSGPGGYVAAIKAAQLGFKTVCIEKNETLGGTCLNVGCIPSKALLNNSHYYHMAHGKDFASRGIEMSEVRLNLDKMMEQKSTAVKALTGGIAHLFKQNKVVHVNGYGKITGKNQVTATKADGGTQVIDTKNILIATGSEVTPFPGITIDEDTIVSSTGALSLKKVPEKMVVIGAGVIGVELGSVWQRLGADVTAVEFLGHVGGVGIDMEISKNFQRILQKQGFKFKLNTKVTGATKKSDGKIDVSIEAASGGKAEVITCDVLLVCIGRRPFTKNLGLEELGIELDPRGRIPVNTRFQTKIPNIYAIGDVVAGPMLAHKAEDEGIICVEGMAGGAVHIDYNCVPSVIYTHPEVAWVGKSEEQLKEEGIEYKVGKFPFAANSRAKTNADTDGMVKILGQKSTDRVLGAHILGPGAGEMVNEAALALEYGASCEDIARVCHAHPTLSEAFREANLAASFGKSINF
# UniProt P39656: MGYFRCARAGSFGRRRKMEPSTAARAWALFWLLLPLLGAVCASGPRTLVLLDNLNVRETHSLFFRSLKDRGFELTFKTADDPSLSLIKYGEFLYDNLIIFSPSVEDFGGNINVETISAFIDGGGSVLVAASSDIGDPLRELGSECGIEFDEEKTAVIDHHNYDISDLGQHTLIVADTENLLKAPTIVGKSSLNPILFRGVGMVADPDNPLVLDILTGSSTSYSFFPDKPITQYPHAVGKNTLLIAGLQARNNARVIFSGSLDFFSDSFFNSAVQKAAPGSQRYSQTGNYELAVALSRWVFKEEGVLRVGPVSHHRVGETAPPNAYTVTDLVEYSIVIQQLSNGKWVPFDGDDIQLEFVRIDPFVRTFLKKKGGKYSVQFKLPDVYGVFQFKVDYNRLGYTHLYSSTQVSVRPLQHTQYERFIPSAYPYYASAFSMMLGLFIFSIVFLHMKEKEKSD
# The list shows a part of the results.
# What was measured:
# Experiment in all cases: log2 fold change, soluble protein after heating vs DMSO (PISA); higher = thermal stabilisation; K562 cells, 10 uM, 30 min; active = over 0.2 and 3.5 SD of the protein, either way, in both replicates (recomputed)
# [1] = compound: COC1=CC=C(C=C1)CN2C=CC3=C2C=C(C=C3)C(=O)NO
# Summary of the method: (§1)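 Quantification of soluble protein used TMTpro 16plex LC-MS/MS, with channel sums equalised. Samples were the supernatant after 21,000xg for 90 min of pooled aliquots from K562 cells (2×10^6 cells/mL) treated with 10 μM compound for 30 min, heated for 3 min over 48°C-58°C, and extracted in PBS with 0.5% NP-40 at 4°C. Values, from duplicates, describe thermal stability against control samples on a log2 fold-change scale.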
# filanesib = compound: CON(C)C(=O)N1N=C(c2cc(F)ccc2F)S[C@@]1(CCCN)c1ccccc1 [filanesib]
# Summary of the method: as §1
# zotarolimus = compound: CO[C@H]1C[C@@H]2CC[C@@H](C)[C@@](O)(O2)C(=O)C(=O)N2CCCC[C@H]2C(=O)O[C@H]([C@H](C)C[C@@H]2CC[C@H](n3cnnn3)[C@H](OC)C2)CC(=O)[C@H](C)/C=C(\C)[C@@H](O)[C@@H](OC)C(=O)[C@H](C)C[C@H](C)/C=C/C=C/C=C/1C [zotarolimus]
# Summary of the method: as §1
# idasanutlin = compound: COc1cc(C(=O)O)ccc1NC(=O)[C@@H]1N[C@@H](CC(C)(C)C)[C@](C#N)(c2ccc(Cl)cc2F)[C@H]1c1cccc(Cl)c1F [idasanutlin]
# Summary of the method: as §1
# alisertib = compound: COc1cc(Nc2ncc3c(n2)-c2ccc(Cl)cc2C(c2c(F)cccc2OC)=NC3)ccc1C(=O)O [alisertib]
# Summary of the method: as §1
# [2] = compound: COc1cc2nc(-c3cc(F)ccc3O)nc(N[C@@H]3CNC[C@H]3C(C)(C)O)c2cc1OC
# Summary of the method: as §1
# gefitinib = compound: COc1cc2ncnc(Nc3ccc(F)c(Cl)c3)c2cc1OCCCN1CCOCC1 [gefitinib]
# Summary of the method: as §1
# [3] = compound: COc1cccc2cc(-c3nc([C@H]4CC[C@H](C(=O)O)CC4)n4ncnc(N)c34)[nH]c12
# Summary of the method: as §1
# lapatinib = compound: CS(=O)(=O)CCNCc1ccc(-c2ccc3ncnc(Nc4ccc(OCc5cccc(F)c5)c(Cl)c4)c3c2)o1 [lapatinib]
# Summary of the method: as §1
# pictilisib = compound: CS(=O)(=O)N1CCN(Cc2cc3nc(-c4cccc5[nH]ncc45)nc(N4CCOCC4)c3s2)CC1 [pictilisib]
# Summary of the method: as §1
Target,log2 fold change [1],log2 fold change (filanesib),log2 fold change (zotarolimus),log2 fold change (idasanutlin),log2 fold change (alisertib),log2 fold change [2],log2 fold change (gefitinib),log2 fold change [3],log2 fold change (lapatinib),log2 fold change (pictilisib)
DERL2 (UniProt Q9GZP9),inactive: 0.181,inactive: 0.083,inactive: 0.081,inactive: -0.142,inactive: 0.31,inactive: 0.038,inactive: 0.021,inactive: -0.065,inactive: -0.04,inactive: 0.332
DHX15 (UniProt O43143),inactive: -0.031,inactive: -0.015,inactive: 0.01,inactive: -0.011,inactive: -0.045,inactive: 0.046,inactive: -0.005,inactive: 0.017,inactive: -0.034,inactive: 0.01
DEPDC5 (UniProt O75140),inactive: -0.119,,,,,,,,,
DIAPH1 (UniProt O60610),inactive: 0.008,inactive: 0.083,inactive: 0.081,inactive: 0.04,inactive: -0.099,inactive: -0.06,inactive: 0.046,inactive: -0.193,inactive: 0.075,inactive: 0.006
DDX5 (UniProt P17844),inactive: 0.118,inactive: 0.013,inactive: 0.062,inactive: 0.024,inactive: 0.006,inactive: 0.088,inactive: 0.031,inactive: 0.004,inactive: 0.02,inactive: 0.097
DENND4C isoform 7 (UniProt Q5VZ89),inactive: 0.049,inactive: -0.059,inactive: -0.01,inactive: 0.012,inactive: 0.017,inactive: -0.04,inactive: -0.022,inactive: -0.031,inactive: 0.008,inactive: 0.171
DHRS11 (UniProt Q6UWP2),inactive: -0.003,inactive: -0.089,inactive: 0.001,inactive: -0.121,inactive: -0.022,inactive: 0.01,inactive: 0,inactive: 0.06,inactive: -0.043,inactive: 0.072
DHRS1 (UniProt Q96LJ7),inactive: 0.159,inactive: 0.061,inactive: 0.448,active: 0.952,inactive: -0.025,inactive: 0.115,inactive: 0.494,inactive: -0.113,inactive: 0.096,inactive: 0.009
DDX20 (UniProt Q9UHI6),inactive: -0.047,inactive: 0.286,inactive: 0.068,inactive: 0.127,inactive: 0.184,inactive: -0.318,inactive: 0.085,inactive: -0.339,inactive: -0.031,inactive: -0.033
DNAJA2 (UniProt O60884),inactive: 0.032,inactive: -0.026,inactive: 0.002,inactive: -0.05,inactive: -0.044,inactive: 0.1,inactive: 0.02,inactive: 0.012,inactive: -0.022,inactive: -0.022
DDAH2 (UniProt O95865),inactive: -0.085,inactive: -0.015,inactive: -0.014,inactive: 0.004,inactive: -0.009,inactive: 0.038,inactive: 0.021,inactive: 0.037,inactive: -0.042,inactive: 0.035
DDHD2 (UniProt O94830),inactive: -0.025,inactive: -0.137,inactive: 0.011,inactive: -0.041,inactive: 0.006,inactive: -0.123,inactive: -0.041,inactive: 0.098,inactive: -0.025,inactive: 0.02
DERL1 (UniProt Q9BUN8),inactive: 0.033,inactive: -0.071,inactive: -0.026,inactive: 0.043,inactive: -0.228,inactive: -0.062,inactive: 0.073,inactive: 0.031,inactive: -0.007,inactive: -0.01
DDX56 (UniProt Q9NY93),inactive: -0.029,inactive: 0.268,inactive: -0.006,inactive: 0.144,inactive: -0.237,inactive: -0.108,inactive: 0.004,inactive: -0.137,inactive: 0.154,inactive: -0.018
DHX38 (UniProt Q92620),inactive: -0.024,inactive: -0.005,inactive: -0.015,inactive: -0.016,inactive: -0.044,inactive: 0.044,inactive: -0.024,inactive: 0.026,inactive: 0.01,inactive: 0.055
DHX29 (UniProt Q7Z478),inactive: 0.025,inactive: 0.276,inactive: -0.006,inactive: 0.1,inactive: 0.019,inactive: 0.06,inactive: 0.008,inactive: -0.078,inactive: 0.039,inactive: -0.126
DGKZ (UniProt Q13574),inactive: -0.015,inactive: 0.053,inactive: 0.019,inactive: 0.187,inactive: -0.008,inactive: 0.217,inactive: 0.089,inactive: -0.091,inactive: 0.022,inactive: -0.03
DHPS (UniProt P49366),active: 0.268,inactive: -0.024,inactive: -0.001,inactive: 0.03,inactive: -0.033,inactive: -0.047,inactive: -0.018,inactive: 0.063,inactive: 0.05,inactive: 0.024
DDX4 (UniProt Q9NQI0),inactive: -0.474,inactive: 0.186,inactive: 0.004,inactive: 0.42,inactive: 0.172,inactive: 0.368,inactive: 0.048,inactive: -0.715,inactive: -0.399,inactive: 0.17
DMD (UniProt P11532),inactive: -0.033,inactive: -0.055,inactive: -0.004,inactive: 0.025,inactive: 0.011,inactive: -0.012,inactive: 0.011,inactive: 0.017,inactive: 0.042,inactive: -0.023
DMTN (UniProt Q08495),inactive: 0,inactive: 0.016,inactive: 0.027,inactive: 0.051,inactive: -0.049,inactive: -0.04,inactive: 0.03,inactive: 0.027,inactive: -0.006,inactive: -0.012
DDX3X (UniProt O00571),inactive: 0.034,inactive: 0.806,inactive: 0.043,inactive: 0.441,inactive: 0.113,inactive: -0.075,inactive: 0.047,inactive: -0.529,inactive: 0.133,inactive: -0.055
DHFR (UniProt P00374),inactive: -0.057,inactive: 0.089,inactive: 0.065,inactive: -0.051,inactive: -0.08,inactive: 0.109,inactive: -0.021,inactive: -0.05,inactive: -0.061,inactive: 0.039
DKC1 (UniProt O60832),inactive: -0.064,inactive: 0.187,inactive: 0,inactive: 0.094,inactive: -0.102,inactive: 0.021,inactive: -0.042,inactive: -0.003,inactive: 0.003,inactive: 0
DERA (UniProt Q9Y315),inactive: -0.015,inactive: 0.062,inactive: -0.039,inactive: -0.008,inactive: -0.087,inactive: 0.019,inactive: -0.007,inactive: 0.031,inactive: 0.005,inactive: -0.001
DHRS3 (UniProt O75911),inactive: 0.13,inactive: -0.009,inactive: -0.056,inactive: -0.107,inactive: 0.008,inactive: 0.031,inactive: 0.067,inactive: 0.021,inactive: 0.065,inactive: 0.019
DHX30 isoform 2 (UniProt Q7L2E3),inactive: -0.032,inactive: 0.148,inactive: 0.013,inactive: 0.12,inactive: 0.021,inactive: -0.076,inactive: -0.029,inactive: -0.164,inactive: 0.105,inactive: -0.145
DLD (UniProt P09622),inactive: -0.003,inactive: -0.106,inactive: -0.032,inactive: 0.004,inactive: -0.024,inactive: -0.056,inactive: -0.096,inactive: 0.036,inactive: -0.015,inactive: 0.067
DDOST (UniProt P39656),inactive: -0.068,inactive: -0.009,inactive: 0.036,inactive: 0.013,inactive: -0.065,inactive: 0.003,inactive: -0.019,inactive: 0.012,inactive: 0.019,inactive: -0.04
DHX57 (UniProt Q6P158),inactive: -0.001,inactive: 0.172,inactive: 0.014,inactive: 0.129,inactive: -0.184,inactive: -0.02,inactive: -0.048,inactive: -0.153,inactive: 0.097,inactive: -0.071

# As entered above:
# Under log2 fold change [2], DHX29 (UniProt Q7Z478) is listed with inactive: 0.06
# Under log2 fold change [1], DEPDC5 (UniProt O75140) is listed with inactive: -0.119
